Our source for the binding values is article PMC6877594, “Atomic structure of the human herpesvirus 6B capsid and capsid-associated tegument complexes” (Nature Communications, 2019).

By UniProt entry, the sequences of proteins in these tests, tags left out.
UniProt P0DTP3: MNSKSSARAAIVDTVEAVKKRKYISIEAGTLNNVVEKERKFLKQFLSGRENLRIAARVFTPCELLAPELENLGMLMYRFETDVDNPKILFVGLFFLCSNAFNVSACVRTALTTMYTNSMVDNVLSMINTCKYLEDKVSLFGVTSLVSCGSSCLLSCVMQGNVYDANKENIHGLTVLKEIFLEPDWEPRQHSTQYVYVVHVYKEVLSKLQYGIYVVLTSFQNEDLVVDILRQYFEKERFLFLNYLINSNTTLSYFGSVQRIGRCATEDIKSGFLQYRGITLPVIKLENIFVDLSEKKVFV

Read-outs that look alike come from different tables or passages of the source. No constants are given. Whether binding was seen depends on the method and setting. Some entries that bind do so weakly or less than the wild type.

Common to all, as to test: cryo-EM structure; in situ in HHV-6B (Z29) virions pelleted from SupT1 culture supernatant and resuspended in PBS; icosahedral reconstruction ~5.1 Å, sub-particle reconstructions at the fivefold, threefold and twofold axes at 3.82, 3.77 and 3.77 Å; atomic models of 59 conformers
Assay [1] deals with T1, major capsid protein (MCP) of human herpesvirus 6B (human herpesvirus 6B (Z29 strain)) (UniProt Q9QJ26).
T1 sequence: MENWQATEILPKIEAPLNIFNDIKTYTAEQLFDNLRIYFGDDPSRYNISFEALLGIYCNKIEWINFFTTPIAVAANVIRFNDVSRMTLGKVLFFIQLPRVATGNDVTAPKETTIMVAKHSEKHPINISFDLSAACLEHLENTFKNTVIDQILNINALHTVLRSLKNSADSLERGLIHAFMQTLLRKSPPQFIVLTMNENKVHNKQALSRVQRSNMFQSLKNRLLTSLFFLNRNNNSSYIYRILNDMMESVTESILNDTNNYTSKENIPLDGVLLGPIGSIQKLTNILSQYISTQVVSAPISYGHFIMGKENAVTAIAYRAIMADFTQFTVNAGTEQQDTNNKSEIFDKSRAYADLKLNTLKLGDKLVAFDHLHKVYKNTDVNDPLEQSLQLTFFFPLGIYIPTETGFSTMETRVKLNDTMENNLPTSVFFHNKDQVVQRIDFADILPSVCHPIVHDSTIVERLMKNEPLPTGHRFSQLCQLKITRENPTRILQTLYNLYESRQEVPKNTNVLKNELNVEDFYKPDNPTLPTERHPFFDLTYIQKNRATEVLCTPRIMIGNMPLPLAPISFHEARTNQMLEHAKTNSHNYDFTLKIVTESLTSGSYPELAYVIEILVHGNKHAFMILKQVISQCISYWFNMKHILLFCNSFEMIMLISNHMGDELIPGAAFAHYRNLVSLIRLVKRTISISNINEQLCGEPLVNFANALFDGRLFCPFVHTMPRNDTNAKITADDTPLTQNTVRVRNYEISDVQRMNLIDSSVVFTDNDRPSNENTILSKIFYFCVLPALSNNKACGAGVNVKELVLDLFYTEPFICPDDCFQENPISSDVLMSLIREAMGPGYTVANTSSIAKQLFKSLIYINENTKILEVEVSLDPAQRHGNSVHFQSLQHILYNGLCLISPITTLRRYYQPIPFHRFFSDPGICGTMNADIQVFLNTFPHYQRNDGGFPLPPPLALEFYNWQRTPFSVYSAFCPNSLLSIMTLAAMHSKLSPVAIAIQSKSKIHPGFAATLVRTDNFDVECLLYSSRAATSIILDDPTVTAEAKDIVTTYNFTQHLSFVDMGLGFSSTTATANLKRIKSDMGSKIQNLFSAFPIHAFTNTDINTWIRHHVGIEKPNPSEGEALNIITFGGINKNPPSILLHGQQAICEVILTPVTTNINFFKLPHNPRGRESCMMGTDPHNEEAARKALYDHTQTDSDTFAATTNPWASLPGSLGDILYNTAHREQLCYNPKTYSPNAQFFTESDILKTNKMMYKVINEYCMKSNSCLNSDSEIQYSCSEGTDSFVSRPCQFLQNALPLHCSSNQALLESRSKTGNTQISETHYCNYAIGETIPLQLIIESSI

In assay [2] the target is T2, triplex dimer protein (Tri2) of human herpesvirus 6B (human herpesvirus 6B (Z29 strain)) (UniProt Q9QJ27).
T2 sequence: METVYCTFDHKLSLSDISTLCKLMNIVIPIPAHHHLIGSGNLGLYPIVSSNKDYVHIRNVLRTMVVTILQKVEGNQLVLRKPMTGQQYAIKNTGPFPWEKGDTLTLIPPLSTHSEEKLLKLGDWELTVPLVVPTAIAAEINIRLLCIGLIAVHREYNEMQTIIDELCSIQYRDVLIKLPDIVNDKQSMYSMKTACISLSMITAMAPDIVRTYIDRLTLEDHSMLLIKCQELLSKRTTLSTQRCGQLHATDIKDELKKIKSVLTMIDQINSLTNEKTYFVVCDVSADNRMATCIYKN

Assay [3] addresses T1, major capsid protein (MCP) of human herpesvirus 6B (human herpesvirus 6B (Z29 strain)). The source holds these as a separate data set.
Assay [4] concerns the target T3, smallest capsid protein (SCP) of human herpesvirus 6B, U32 gene product (human herpesvirus 6B (Z29 strain)) (UniProt P0DTP1).
T3 sequence: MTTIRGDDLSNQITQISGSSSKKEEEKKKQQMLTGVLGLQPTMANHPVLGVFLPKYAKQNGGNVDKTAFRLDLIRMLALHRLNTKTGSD

Assay [5] deals with tegument protein pU11 of human herpesvirus 6B (human herpesvirus 6B (Z29 strain)) (UniProt P0DTO1).
In assay [6] the target is T2, triplex dimer protein (Tri2) of human herpesvirus 6B (human herpesvirus 6B (Z29 strain)). This is another data set of the same source.
For assay [7], the target named is triplex monomer protein (Tri1) of human herpesvirus 6B (human herpesvirus 6B (Z29 strain)) (UniProt P0DTP3).

As for “triplex monomer protein (Tri1) of human herpesvirus 6B (from UniProt P0DTP3 1-299)”, the binding result in assay [1] and in assay [2] was “binds” in each case.

B1: major capsid protein (MCP) of human herpesvirus 6B (natural protein)
chain: MENWQATEILPKIEAPLNIFNDIKTYTAEQLFDNLRIYFGDDPSRYNISFEALLGIYCNKIEWINFFTTPIAVAANVIRFNDVSRMTLGKVLFFIQLPRVATGNDVTAPKETTIMVAKHSEKHPINISFDLSAACLEHLENTFKNTVIDQILNINALHTVLRSLKNSADSLERGLIHAFMQTLLRKSPPQFIVLTMNENKVHNKQALSRVQRSNMFQSLKNRLLTSLFFLNRNNNSSYIYRILNDMMESVTESILNDTNNYTSKENIPLDGVLLGPIGSIQKLTNILSQYISTQVVSAPISYGHFIMGKENAVTAIAYRAIMADFTQFTVNAGTEQQDTNNKSEIFDKSRAYADLKLNTLKLGDKLVAFDHLHKVYKNTDVNDPLEQSLQLTFFFPLGIYIPTETGFSTMETRVKLNDTMENNLPTSVFFHNKDQVVQRIDFADILPSVCHPIVHDSTIVERLMKNEPLPTGHRFSQLCQLKITRENPTRILQTLYNLYESRQEVPKNTNVLKNELNVEDFYKPDNPTLPTERHPFFDLTYIQKNRATEVLCTPRIMIGNMPLPLAPISFHEARTNQMLEHAKTNSHNYDFTLKIVTESLTSGSYPELAYVIEILVHGNKHAFMILKQVISQCISYWFNMKHILLFCNSFEMIMLISNHMGDELIPGAAFAHYRNLVSLIRLVKRTISISNINEQLCGEPLVNFANALFDGRLFCPFVHTMPRNDTNAKITADDTPLTQNTVRVRNYEISDVQRMNLIDSSVVFTDNDRPSNENTILSKIFYFCVLPALSNNKACGAGVNVKELVLDLFYTEPFICPDDCFQENPISSDVLMSLIREAMGPGYTVANTSSIAKQLFKSLIYINENTKILEVEVSLDPAQRHGNSVHFQSLQHILYNGLCLISPITTLRRYYQPIPFHRFFSDPGICGTMNADIQVFLNTFPHYQRNDGGFPLPPPLALEFYNWQRTPFSVYSAFCPNSLLSIMTLAAMHSKLSPVAIAIQSKSKIHPGFAATLVRTDNFDVECLLYSSRAATSIILDDPTVTAEAKDIVTTYNFTQHLSFVDMGLGFSSTTATANLKRIKSDMGSKIQNLFSAFPIHAFTNTDINTWIRHHVGIEKPNPSEGEALNIITFGGINKNPPSILLHGQQAICEVILTPVTTNINFFKLPHNPRGRESCMMGTDPHNEEAARKALYDHTQTDSDTFAATTNPWASLPGSLGDILYNTAHREQLCYNPKTYSPNAQFFTESDILKTNKMMYKVINEYCMKSNSCLNSDSEIQYSCSEGTDSFVSRPCQFLQNALPLHCSSNQALLESRSKTGNTQISETHYCNYAIGETIPLQLIIESSI
notes: major capsid protein (MCP) of human herpesvirus 6B, strain Z29; 1345 amino acids long; domains described over a.a; 1-1345; Native protein in the virion capsid; 16 conformers (15 hexon, 1 penton) modelled in each asymmetric unit; also called penton MCP; hexon MCP
As to B1, the binding entry in assay [3] is listed as “binds”.

B2: tegument protein pU11 of human herpesvirus 6B (natural protein)
chain: MDLKAQSIPFAWLDRDKVQRLTNFLSNLENLENVDLREHPYVTNSCVVREGEDVDELKTLYNTFILWLMYHYVLSKRKPDYNAIWQDITKLQNVVNEYLKSKGLNKGNFENMFTNKEKFESQFSDIHRALLRLGNSIRWGSNVPIDTPYVNLTAEDSSEIENNLQDAEKNMLWYTVYNINDPWDENGYLVTSINKLVYLGKLFVTLNQSWSKLEKVAMSQIVTTQNHLSGHLRKNENFNAVYSQRVLQTPLTGQRVESFLKIITSDYEIIKSSLESYSASKAFSVPENGPHSLMDFASLDGRMPSDLSLPSISIDTKRPSADLARLKISQPKSLDAPLKTQRRHKFPESDSVDNAGGKILIKKETLGGRDVRATTPVSSVSLMSGVEPLSSLTSTNLDLRDKSHGNYRIGPSGILDFGVKLPAEAQSNTGDVDLLQDKTSIRSPSSGITDVVNGLANLNLRQNKSDVSRPWSKNTAANADVFDPVHRLVSEQTGTPFVLNNSDVAGSEAKLTTHSTETGVSPHNVSLIKDLRDKDGFRKQKKLDLLGSWTKEKNDKAIVHSREVTGDSGDATETVTARDSPVLRKTKHANDIFAGLNKKYARDVSRGGKGNSRDLYSGGNAEKKETSGKFNVDKEMTQNEQEPLPNLMEAARNAGEEQYVQAGLGQRVNKILAEFTNLISLGEKGIQDILHNQSGTELKLPTENKLGRESEEANVERILEVSDPQNLFKNFKLQNDLDSVQSPFRLPNADLSRDLDSVSFKDALDVKLPGNGEREIDLALQKVKAGERETSDFKVGQDETLIPTQLMKVETPEEKDDVIEKMVLRIRQDGETDEETVPGPGVAESLGIAAKDKSVIAS
notes: tegument protein pU11 of human herpesvirus 6B, strain Z29; 858 a.a. long; wild-type full-length protein inside the virion, only a.a; 7-275 (pU11nt) are resolved and modelled; also called pU11nt (the resolved N-terminal one-third, a.a. 7-275); pU11nt-a-1
Consider B2, for which the binding entry in assay [3], in assay [4], in assay [5], in assay [6] and in assay [7] was “binds” throughout.

B3: smallest capsid protein (SCP) of human herpesvirus 6B, U32 gene product (natural protein)
chain: MTTIRGDDLSNQITQISGSSSKKEEEKKKQQMLTGVLGLQPTMANHPVLGVFLPKYAKQNGGNVDKTAFRLDLIRMLALHRLNTKTGSD
notes: smallest capsid protein (SCP), U32 gene product of human herpesvirus 6B, strain Z29; 89 residues long; the model covers residues 23-83, residues 1-22 are disordered; Native protein in the virion capsid; 16 conformers modelled in each asymmetric unit; also called penton SCP; hexon SCP
Turning to B3, the binding entry in assay [3] is “binds”.

B4: triplex dimer protein (Tri2) of human herpesvirus 6B (natural protein)
chain: METVYCTFDHKLSLSDISTLCKLMNIVIPIPAHHHLIGSGNLGLYPIVSSNKDYVHIRNVLRTMVVTILQKVEGNQLVLRKPMTGQQYAIKNTGPFPWEKGDTLTLIPPLSTHSEEKLLKLGDWELTVPLVVPTAIAAEINIRLLCIGLIAVHREYNEMQTIIDELCSIQYRDVLIKLPDIVNDKQSMYSMKTACISLSMITAMAPDIVRTYIDRLTLEDHSMLLIKCQELLSKRTTLSTQRCGQLHATDIKDELKKIKSVLTMIDQINSLTNEKTYFVVCDVSADNRMATCIYKN
notes: triplex dimer protein (Tri2) of human herpesvirus 6B, strain Z29; domains clamp (a.a. 1-86), trunk (a.a. 87-181 and 276-296), embracing arm (a.a. 182-275); Native protein in the virion capsid; two conformers (Tri2A, Tri2B) of the same protein in each triplex; also called Tri2A; Tri2B
Turning to B4, the binding entry in assay [6] was “binds”.
